In PubChem BioAssay AID488837 (National Center for Advancing Translational Sciences (NCATS), 2010):
About 20 (0.006%) of roughly 330,000 compounds were called active. This list was built around the results that the source calls inconclusive (neither active nor inactive); the mix of calls is not that of the screen. Calls come from the whole dose curve; as a rule, active = well fitted inhibition curve with a large enough effect; inconclusive = small, poorly fitted or top-dose-only effect, or effect the other way; inactive = flat fitted curve, though single readings scatter. Potencies of inconclusive entries are doubtful fits and often do not repeat.

Amino acid sequences for entries named in this document (tags omitted). A change or cut given only in a name is not applied to a line headed by its entry.
UniProt O00167: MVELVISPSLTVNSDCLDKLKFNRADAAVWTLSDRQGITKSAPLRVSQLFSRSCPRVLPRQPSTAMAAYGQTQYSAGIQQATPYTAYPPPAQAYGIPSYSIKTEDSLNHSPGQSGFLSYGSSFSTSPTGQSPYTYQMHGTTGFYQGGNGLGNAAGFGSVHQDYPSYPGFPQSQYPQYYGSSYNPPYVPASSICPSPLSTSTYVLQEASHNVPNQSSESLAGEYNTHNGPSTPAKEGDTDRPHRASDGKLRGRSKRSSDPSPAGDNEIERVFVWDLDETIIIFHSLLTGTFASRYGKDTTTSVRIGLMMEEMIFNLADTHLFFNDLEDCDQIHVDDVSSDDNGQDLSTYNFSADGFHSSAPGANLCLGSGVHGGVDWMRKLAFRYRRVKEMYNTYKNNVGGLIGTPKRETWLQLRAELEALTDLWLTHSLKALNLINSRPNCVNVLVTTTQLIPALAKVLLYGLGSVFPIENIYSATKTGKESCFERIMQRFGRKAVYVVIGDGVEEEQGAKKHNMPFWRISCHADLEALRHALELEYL

Molecular target: Protein phosphatase EYA2 (Homo sapiens) (UniProt O00167)
Test: qHTS Assay for Inhibitors of the Phosphatase Activity of Eya2
Conditions: recombinant Eya2, OMFP fluorescence dephosphorylation (OMFP is methylfluorescein phosphate); series mostly up to 76.9 µM
How it was run: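 Eya2 protein (added as 0.2 uM solution) was preincubated with compound for 10 min at ambient temperature in 50 mM HEPES pH 7.5, 50 mM NaCl, 5 uM MgCl2, 0.05% BSA, 1 mM DTT. OMFP (added at 50 uM) then reacted 10 min; fluorescence read at 485/525 nm.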
Potency is the fitted concentration of half-maximal effect.

SMILES | Potency
O=Cc1cn(-c2ccccc2)nc1-c1cc2ccccc2oc1=O | inconclusive: 70.8 µM [inhibitor, single point]
CN(C)CCn1c(=O)n(Cc2ccccc2)c(=O)c2c3c(sc21)CCCCC3 | inconclusive: 355 µM [inhibitor, single point]
COc1ccc(NC(=O)CNc2cc(S(=O)(=O)N3CCOCC3)ccc2N2CCOCC2)c(OC)c1 | inconclusive: 14.1 µM [inhibitor, partial curve, poor fit]
COc1ccc(CNC(=O)c2ccc3ccccc3n2)cc1 | inconclusive: 20 µM [inhibitor, single point]
Oc1ccc(/C=N/N2CCCCC2)c(O)c1 | inactive
O=C(O)c1ccccc1-c1noc(-c2ccccc2F)n1 | inactive
COc1cc(-c2nc3ccccn3c2/N=C/c2cccc(F)c2)ccc1O | inconclusive: 22.4 µM [inhibitor, single point]
Cc1nn(C)c(NC(=O)c2ccccc2Cl)c1Cl | inconclusive: 126 µM [inhibitor, partial curve]
Nc1nonc1-n1nnc(C(=O)N/N=C/c2ccc(Cl)cc2Cl)c1CN1CCOCC1 | inactive
N#Cc1ccc(OCC(O)CN2CCN(c3ncc(C(F)(F)F)cc3Cl)CC2)cc1 (centres undefined) | inconclusive: 79.4 µM [inhibitor, single point]
Nc1nc(Nc2ccccc2)nc(N2CCOCC2)c1[N+](=O)[O-] | inactive
Cc1ccc(CN2CCNC(=O)C2CC(=O)NCCCn2cccn2)o1 (centres undefined) | inconclusive: 89.1 µM [inhibitor, single point]
CCO/C=C1/C(=O)N(Cc2ccccc2)C(=O)c2ccccc21 | inconclusive: 79.4 µM [inhibitor, single point]
COc1ccccc1S(=O)(=O)Cc1ccc(C(=O)NCc2ccco2)o1 | inconclusive: 31.6 µM [inhibitor, partial curve]
COC(=O)c1[nH]c2ccccc2c1NC(=O)c1ccccc1F | inconclusive: 100 µM [inhibitor, single point]
O=C1/C(=C/c2ccco2)CCc2ccccc21 | inactive
CC1CCCCN1CCCNC(=O)c1ccc(Br)cc1 (centres undefined) | inconclusive: 17.8 µM [inhibitor, single point]
Cc1ccccc1NS(=O)(=O)c1cc(C(=O)NCc2ccco2)ccc1C | inactive
Cc1ccccc1CN1CCNC(=O)C1CC(=O)O (centres undefined) | inactive
COCCN(CCOC)Cc1c(O)ccc2c1O/C(=C\c1ccco1)C2=O | inactive
COc1ccc(-c2csc(N(CCCN(C)C)C(=O)c3ccccc3C)n2)cc1 | active: 50.1 µM
Cc1ccc(NC(=S)NNC(=S)Nc2cccc(C(F)(F)F)c2)cc1 | inconclusive: 100 µM [inhibitor, single point]
CC(=O)N1c2ccc(Cl)cc2C2C=CCC2C1c1cccc2ccccc12 (centres undefined) | inconclusive: 12.6 µM [inhibitor, single point]
C=CCOc1ccc(CNC(C)(C)CO)cc1OC | inconclusive: 20 µM [inhibitor, single point]
O=C(COc1ccccc1)NNc1nc2c(F)cccc2s1 | inconclusive: 25.1 µM [inhibitor, single point]

SMILES | Potency
CCOc1ccc(-n2nnnc2SCC(=O)NC2CCCC2)cc1 | inconclusive: 17.8 µM [inhibitor, single point]
CSc1ccc2nnc(-c3cccc(F)c3)n2n1 | inconclusive: 22.4 µM [inhibitor, partial curve]
O=C(CSc1nnc(-c2ccco2)c(-c2ccco2)n1)Nc1ccccc1 | inactive
Cc1ccccc1OCC(=O)N(CC(C)C)c1c(N)n(CC(C)C)c(=O)[nH]c1=O | inconclusive: 200 µM [inhibitor, partial curve]
COc1ccc(-c2cc(C(=O)Nc3ccc(F)cc3F)no2)cc1 | inconclusive: 20 µM [inhibitor, single point]
COc1ccc(CCNC(=O)CC(NS(=O)(=O)c2ccc(NC(C)=O)cc2)C(C)C)cc1OC (centres undefined) | inconclusive: 20 µM [inhibitor, single point]
CN1CCc2c(OCC(=O)N3N=C(c4cccs4)CC3c3ccc(F)cc3)cccc2C1=O (centres undefined) | inactive
Cc1csc2nc(CSc3nc4ccccc4o3)cn12 | inactive
COc1ccc(C(=O)Nc2ccc(CN3CCCCC3)cc2)cc1 | inconclusive: 100 µM [inhibitor, single point]
CCN(C(=O)CSc1nc(-c2cccs2)nc2ccccc12)C1CCS(=O)(=O)C1 (centres undefined) | inconclusive: 100 µM [inhibitor, single point]
O=C(NC(=S)Nn1cnnc1)c1ccccc1 | inactive
CCN(C(=O)CSc1nnc(-c2ccccc2)o1)c1c(N)n(Cc2ccccc2)c(=O)[nH]c1=O | inactive
CCOc1cc(/C=N/Nc2cc(C)nc3ccc(C)cc23)ccc1O | inactive
COc1ccc(Cc2nnc(NC(=O)C3CC(=O)N(c4ccccc4)C3)s2)cc1OC (centres undefined) | inconclusive: 22.4 µM [inhibitor, single point]
Cc1cccc(OCC(=O)NCC(=O)N/N=C/c2ccccc2)c1 | inactive
COc1ccc(N/C=C/C(=O)c2ccc(Oc3ncccn3)cc2)cc1 | inconclusive: 1410 µM [inhibitor, single point]
O=C1NN(c2cccc(Br)c2)C(=O)/C1=C\c1ccccc1 | inactive
COc1ccc(NC(=O)C2CCN(C(=O)c3cccs3)CC2)c(OC)c1 | inconclusive: 22.4 µM [inhibitor, single point]
CC(C)(C)c1ccc(S(=O)(=O)Nc2ccc3c(c2)COC3=O)cc1 | inconclusive: 89.1 µM [inhibitor, single point]
NC(=O)c1nn(-c2ccccc2)c(=O)cc1O | inconclusive: 891 µM [inhibitor, partial curve]
CCOC(=O)c1cnc(-c2ccccc2)nc1N1CCOCC1 | inactive
Clc1ccc(-n2ncc3c(N4CCCCCC4)ncnc32)cc1 | inconclusive: 14.1 µM [inhibitor, single point]
O=C(c1ccco1)N1CCN(Cc2cn[nH]c2-c2cccc3ccccc23)CC1 | inconclusive: 89.1 µM [inhibitor, single point]
O=C(O)C1=CC(=C(c2ccc(O)c(C(=O)O)c2)c2ccc(O)c(C(=O)O)c2)C=CC1=O | inconclusive: 50.1 µM [inhibitor, partial curve]
Cn1cccc1C(=O)Nc1ccc(Cl)c(S(=O)(=O)N2CCCCC2)c1 | inconclusive: 14.1 µM [inhibitor, partial curve, poor fit]

SMILES | Potency
CCCCC(NC(=O)COc1cc2c(c3oc(=O)cc(C)c13)CCC(C)(C)O2)C(=O)O (centres undefined) | inactive
Cc1sc2ccc3sccc3c2[n+]1C | inactive
CC(=O)c1ccc(OCC(=O)c2cc(C)n(-c3ccc4c(c3)OCO4)c2C)cc1 | inactive
COC1=C(Nc2ccccc2OC)C(=O)c2ccccc2C1=O | inconclusive: 100 µM [inhibitor, single point]
Cc1cccc(Nc2nc(N)nc(CCl)n2)c1C | inconclusive: 20 µM [inhibitor, single point]
Cc1nnc(SCC(=O)Nc2nccs2)o1 | inactive
NC(=O)C(=O)N/N=C/c1c(F)c(F)c(F)c(F)c1F | inconclusive: 100 µM [inhibitor, single point]
O=c1[nH]c2cccnc2n1Cc1ccco1 | inconclusive: 39.8 µM [inhibitor, partial curve, poor fit]
CC(C)N=c1scc(-c2ccco2)n1/N=C/c1ccc(O)c(O)c1 | inconclusive: 17.8 µM [inhibitor, single point]
CCOC(=O)CC1=C(C(=O)OCC)C(c2cc(OC)c(OC)cc2OC)C(C#N)=C(N)O1 (centres undefined) | inactive
COc1ccc(Cl)cc1S(=O)(=O)n1ccnc1 | inconclusive: 89.1 µM [inhibitor, single point]
C/C(=N\Nc1cc(C(F)(F)F)ccc1Cl)c1ccncc1 | inconclusive: 100 µM [inhibitor, single point]
C[N+](C)(C)c1ccc(/C=N/Nc2nc(Cl)c(C#N)c(Cl)c2Cl)cc1 | inactive
CC1CCCCC1NS(=O)(=O)c1ccc(S(=O)(=O)N2CCN(CCC#N)CC2)cc1 (centres undefined) | inactive
COc1ccc(Sc2nc3ccccc3n3c(C(F)(F)F)nnc23)cc1 | inconclusive: 17.8 µM [inhibitor, single point]
Cc1ccc(Nc2cc(=O)oc3ccccc23)c(C)c1 | inconclusive: 50.1 µM [inhibitor, partial curve]
COc1cc(C2Nc3ccc4ccccc4c3C3=C2C(=O)CC(C)(C)C3)ccc1OC(C)C(=O)O (centres undefined) | inconclusive: 20 µM [inhibitor, single point]
CCOC(=O)CN(C(=O)COc1nc(C)cc(C)c1C#N)c1cccc(Cl)c1 | inconclusive: 178 µM [inhibitor, single point]
COc1ccc(NC(=O)CN(C)C(=O)Cc2c(C)nc3ccccc3c2C)cc1 | inconclusive: 70.8 µM [inhibitor, single point]
CS(=O)(=O)N1CCN(c2ccccc2NC(=O)c2ccc([N+](=O)[O-])o2)CC1 | inconclusive: 89.1 µM [inhibitor, single point]
O=C(/C=C/c1ccc([N+](=O)[O-])cc1)OCC(=O)N1CCCC1 | inactive
Cc1ccc(CNC(=O)C2CCC(=O)N(CC3CCCCC3)C2)o1 (centres undefined) | inactive
Cc1cccc(Nc2nc(NCc3ccco3)c3ccccc3n2)c1 | inactive
CCc1nc(N2CCN(C(=O)c3ccco3)CC2)c(C#N)c2c1COC(C)(C)C2 | inconclusive: 316 µM [inhibitor, single point]

Looked up above.
In Potency, O=c1[nH]c2cccnc2n1Cc1ccco1 has inconclusive: 39.8 µM [inhibitor, partial curve, poor fit]
In Potency, COc1ccc(Cl)cc1S(=O)(=O)n1ccnc1 has inconclusive: 89.1 µM [inhibitor, single point]
In Potency, CS(=O)(=O)N1CCN(c2ccccc2NC(=O)c2ccc([N+](=O)[O-])o2)CC1 has inconclusive: 89.1 µM [inhibitor, single point]
